PubChem BioAssay AID720505 – Drosophila RNAi Screening Center – 2013

Assay: 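Fly regulators or components of the CRAC channel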 (primary screen)
System: Drosophila S2R+ cells
Knock-down reagent: long dsRNA against Drosophila genes
Treatment: thapsigargin (2 µM) in calcium-free buffer to empty internal stores, then 2 mM calcium added back
Measurement: 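Fluo-4 signal in 384-well plates read on a FLIPR after thapsigargin (2 µM, calcium-free) store depletion and 2 mM calcium add-back; unnormalised mean endpoint per well; screen run twice, selected wells retested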
Reading the numbers: calcium signal and retest calcium signal: higher = more calcium entry after store depletion
Call rule: 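About 1500 genes called as lowering calcium entry, by varying amounts, judged against per-plate control wells with STIM1 as positive and Rho1 as negative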
Meaning of the calls: active = called as lowering calcium entry; inactive = not called
The screen tested about 20,000 reagents; shown is a random part of those that have a named target and a result. Over the whole deposit, about 2,100 (10%) were called active. 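Raw plate signals without normalisation; calls rest on control-based scores that were not deposited; replicate 2 separates called from uncalled poorly.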 Names joined by + are all predicted targets of the reagent. Not given: the amount of reagent, the time to read-out.

| target | DRSC id | calcium signal, replicate 1 | calcium signal, replicate 2 | retest calcium signal, replicate 1 | retest calcium signal, replicate 2 | outcome |
| --- | --- | --- | --- | --- | --- | --- |
| dpp (decapentaplegic) | DRSC00118 | 75.6 | 129 | – | – | inactive |
| dpp (decapentaplegic) | DRSC00121 | 96 | 132 | – | – | inactive |
| dpp (decapentaplegic) | DRSC00813 | 171 | 169 | – | – | inactive |
| DIP-gamma (Dpr-interacting protein gamma) | DRSC14873 | 72.1 | 85.3 | – | – | inactive |
| grass (Gram-positive Specific Serine protease) | DRSC15911 | 152 | 183 | – | – | inactive |
| glo (glorund) | DRSC16145 | 138 | 108 | – | – | inactive |
| Cp190 (Centrosomal protein 190kD) | DRSC16607 | 94.3 | 157 | – | – | inactive |
| CG9986 | DRSC16586 | 134 | 151 | – | – | inactive |
| Pis (Phosphatidylinositol synthase) | DRSC20178 | 108 | 110 | – | – | inactive |
| CG32473 | DRSC14352 | 153 | 231 | – | – | inactive |
| CG32473 | DRSC16446 | 116 | 88.8 | – | – | inactive |
| NT1 (Neurotrophin 1) | DRSC08530 | 65.7 | 66.5 | – | – | inactive |
| NT1 (Neurotrophin 1) | DRSC22895 | 119 | 200 | – | – | inactive |
| CG15423 | DRSC00437 | 192 | 78.2 | – | – | inactive |
| yellow-f | DRSC15348 | 105 | 95.7 | – | – | inactive |
| CG31810 | DRSC01560 | 131 | 85.6 | – | – | inactive |
| rdgB (retinal degeneration B) | DRSC20365 | 124 | 193 | – | – | inactive |
| Mst77F (Male-specific transcript 77F) | DRSC11871 | 136 | 112 | – | – | inactive |
| CadN2 (Cadherin-N2) | DRSC03062 | 146 | 141 | – | – | inactive |
| CadN2 (Cadherin-N2) | DRSC03063 | 110 | 105 | – | – | inactive |
| CadN2 (Cadherin-N2) | DRSC03064 | 105 | 133 | – | – | inactive |
| Ada (Adenosine deaminase) | DRSC14463 | 63 | 146 | – | – | active |
| uif (uninflatable) | DRSC00963 | 101 | 129 | – | – | inactive |
| uif (uninflatable) | DRSC03427 | 71.4 | 158 | – | – | active |
| Gr64f (Gustatory receptor 64f) | DRSC08447 | 78.8 | 95.7 | – | – | inactive |
| Six4 | DRSC11881 | 98.3 | 168 | – | – | inactive |
| stv (starvin) | DRSC09796 | 110 | 114 | – | – | inactive |
| stv (starvin) | DRSC10111 | 52.3 | 105 | – | – | active |
| CG13605 | DRSC14608 | 127 | 337 | – | – | inactive |
| CG7402 | DRSC10839 | 83.3 | 179 | – | – | inactive |
| CG17470 | DRSC02621 | 115 | 80.6 | – | – | inactive |
| CG2617 | DRSC02712 | 63.1 | 126 | – | – | active |
| CG7166 | DRSC11809 | 109 | 210 | – | – | inactive |
| Fip1 (Factor interacting with poly(A) polymerase 1) | DRSC12147 | 64.6 | 110 | – | – | active |
| cid (centromere identifier) | DRSC05429 | 107 | 161 | – | – | inactive |
| cid (centromere identifier) | DRSC07592 | 162 | 223 | – | – | inactive |
| CG5194 | DRSC10492 | 102 | 90.1 | – | – | inactive |
| Atg8b (Autophagy-related 8b) | DRSC14501 | 51.5 | 127 | – | – | active |
| CG17264 | DRSC00500 | 97.7 | 224 | – | – | inactive |
| Gapvd1 (GTPase activating protein and VPS9 domains 1) | DRSC19752 | 57.5 | 122 | – | – | active |
| CG15824 | DRSC00473 | 123 | 186 | – | – | inactive |
| Afti (Aftiphilin) | DRSC16440 | 138 | 121 | – | – | inactive |
| CG30116 | DRSC05935 | 72.6 | 137 | – | – | active |
| CG30116 | DRSC06685 | 168 | 199 | – | – | inactive |
| Gorab (Golgin, RAB6 interacting) | DRSC10383 | 88.3 | 140 | – | – | inactive |
| Psi (P-element somatic inhibitor) | DRSC07519 | 138 | 138 | – | – | inactive |
| CG6607 | DRSC16073 | 283 | 145 | – | – | inactive |
| CG12307 | DRSC02159 | 206 | 133 | – | – | inactive |
| Cad86C (Cadherin 86C) | DRSC15587 | 157 | 122 | – | – | inactive |
| Cad86C (Cadherin 86C) | DRSC15611 | 154 | 92.8 | – | – | inactive |
| Larp7 (La related protein 7) | DRSC18798 | 141 | 107 | – | – | inactive |
| Ranbp16 | DRSC20160 | 90.7 | 143 | – | – | inactive |
| Fs (Follistatin) | DRSC06258 | 96.7 | 109 | – | – | inactive |
| Fs (Follistatin) | DRSC06259 | 122 | 176 | – | – | inactive |
| fws (four way stop) | DRSC02969 | 85.3 | 111 | – | – | inactive |
| Rab8 | DRSC11261 | 125 | 123 | – | – | inactive |
| Nepl3 (Neprilysin-like 3) | DRSC02681 | 80.2 | 141 | – | – | inactive |
| CG7432 | DRSC16243 | 249 | 198 | – | – | inactive |
| CG8560 | DRSC10994 | 110 | 123 | – | – | inactive |
| CG32700 | DRSC17857 | 109 | 82.3 | – | – | inactive |
| CG32700 | DRSC17858 | 110 | 98.4 | – | – | inactive |
| Ref1 (RNA and export factor binding protein 1) | DRSC12497 | 81.4 | 99 | 142 | 128 | inactive |
| Ref1 (RNA and export factor binding protein 1) | DRSC22387 | 53.5 | 188 | – | – | active |

Called active (from the list above):
| target | DRSC id | calcium signal, replicate 1 | calcium signal, replicate 2 | retest calcium signal, replicate 1 | retest calcium signal, replicate 2 | outcome |
| --- | --- | --- | --- | --- | --- | --- |
| Ada (Adenosine deaminase) | DRSC14463 | 63 | 146 | – | – | active |
| uif (uninflatable) | DRSC03427 | 71.4 | 158 | – | – | active |
| stv (starvin) | DRSC10111 | 52.3 | 105 | – | – | active |
| CG2617 | DRSC02712 | 63.1 | 126 | – | – | active |
| Fip1 (Factor interacting with poly(A) polymerase 1) | DRSC12147 | 64.6 | 110 | – | – | active |
| Atg8b (Autophagy-related 8b) | DRSC14501 | 51.5 | 127 | – | – | active |
| Gapvd1 (GTPase activating protein and VPS9 domains 1) | DRSC19752 | 57.5 | 122 | – | – | active |
| CG30116 | DRSC05935 | 72.6 | 137 | – | – | active |
| Ref1 (RNA and export factor binding protein 1) | DRSC22387 | 53.5 | 188 | – | – | active |

The listing continues:
| target | DRSC id | calcium signal, replicate 1 | calcium signal, replicate 2 | retest calcium signal, replicate 1 | retest calcium signal, replicate 2 | outcome |
| --- | --- | --- | --- | --- | --- | --- |
| CG6567 + CG42394 | DRSC22241 | 81.5 | 222 | – | – | inactive |
| Tpi (Triose phosphate isomerase) | DRSC16888 | 111 | 173 | – | – | inactive |
| CG15673 | DRSC04263 | 215 | 108 | – | – | inactive |
| Rim (Rab3 interacting molecule) | DRSC16224 | 180 | 158 | – | – | inactive |
| Rim (Rab3 interacting molecule) | DRSC16225 | 125 | 146 | – | – | inactive |
| Rim (Rab3 interacting molecule) | DRSC16226 | 177 | 276 | – | – | inactive |
| Rim (Rab3 interacting molecule) | DRSC16227 | 156 | 144 | – | – | inactive |
| Rim (Rab3 interacting molecule) | DRSC22406 | 71.4 | 153 | – | – | inactive |
| peo (pendolino) | DRSC05995 | 221 | 163 | – | – | inactive |
| Ykt6 (YKT6 v-SNARE) | DRSC17970 | 139 | 118 | – | – | inactive |
| CG31869 | DRSC02582 | 98 | 119 | – | – | inactive |
| CG31869 | DRSC02674 | 118 | 136 | – | – | inactive |
| CG33339 | DRSC22917 | 85 | 183 | – | – | inactive |
| Or92a (Odorant receptor 92a) | DRSC16771 | 179 | 129 | – | – | inactive |
| PICK1 (Protein interacting with C kinase 1) | DRSC01268 | 131 | 92.1 | – | – | inactive |
| PICK1 (Protein interacting with C kinase 1) | DRSC02936 | 119 | 122 | – | – | inactive |
| CG18549 | DRSC15347 | 168 | 98.9 | – | – | inactive |
| CG11836 | DRSC14396 | 221 | 289 | – | – | inactive |
| CG32409 | DRSC08780 | 8038 | 153 | – | – | active |
| CG34129 | DRSC15960 | 251 | 112 | – | – | inactive |
| cDIP (Common Dpr-interacting protein) | DRSC14267 | 184 | 239 | – | – | inactive |
| CG32987 | DRSC22373 | 91.7 | 159 | – | – | inactive |
| Prat2 (Phosphoribosylamidotransferase 2) | DRSC09692 | 157 | 119 | – | – | inactive |
| Oamb (Octopamine receptor in mushroom bodies) | DRSC15120 | 127 | 110 | – | – | inactive |
| Oamb (Octopamine receptor in mushroom bodies) | DRSC16763 | 204 | 154 | – | – | inactive |
| Rtca (RNA 3'-terminal phosphate cyclase) | DRSC18517 | 116 | 160 | – | – | inactive |
| jar (jaguar) | DRSC16974 | 152 | 173 | – | – | inactive |
| pps (protein partner of snf) | DRSC16057 | 168 | 114 | – | – | inactive |
| Vps16A (Vacuolar protein sorting 16A) | DRSC16422 | 120 | 98.8 | – | – | inactive |
| IntS10 (Integrator 10) | DRSC08173 | 63.1 | 136 | – | – | inactive |
| Wdr62 (WD repeat domain 62) | DRSC00081 | 87.5 | 192 | – | – | inactive |
| Wdr62 (WD repeat domain 62) | DRSC00082 | 91.2 | 135 | – | – | inactive |
| Wdr62 (WD repeat domain 62) | DRSC00701 | 141 | 289 | – | – | inactive |
| Wdr62 (WD repeat domain 62) | DRSC21913 | 81.6 | 175 | – | – | inactive |
| CG43759 | DRSC19464 | 162 | 148 | – | – | inactive |
| CG43759 | DRSC19543 | 59 | 107 | – | – | active |
| mGluR (metabotropic Glutamate Receptor) | DRSC17215 | 118 | 124 | – | – | inactive |
| Cog1 (Component of oligomeric golgi complex 1) | DRSC15661 | 94.4 | 113 | – | – | inactive |
| Gr22a (Gustatory receptor 22a) | DRSC22283 | 71.4 | 184 | – | – | inactive |
| Orct (Organic cation transporter) | DRSC16777 | 198 | 325 | – | – | inactive |
| CG4596 | DRSC15608 | 164 | 81.8 | – | – | inactive |
| CG4679 | DRSC06880 | 101 | 178 | – | – | inactive |
| CG17193 | DRSC15187 | 118 | 109 | – | – | inactive |
